The values below come from PubChem BioAssay AID1487 (National Center for Advancing Translational Sciences (NCATS), 2009).

A short description of the assay: qHTS Assay for Modulators of Lamin A Splicing. The following applies: HeLa LMNA splicing GFP/RFP minigene ratio, 48 h. An outline of the steps:
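S3 HeLa stable clones carrying a lamin A-EGFP splicing minigene plus DsRed2 were seeded at 600 cells/well in Opti-MEM with 2% FBS, pin-dosed and incubated 48 h at 37°C. Acumen cytometry (488 nm) gave the GFP/RFP total-intensity ratio.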
On the technique in general: In qHTS, concentration-response curves come from the screen itself.

[1] abbreviates: measured here: GFP splicing reporter channel.
The mark [2] stands for this setting: measured here: RFP viability control channel.

The list shows a part of the results. Shown are side measurements of this screen, not its main read-out; they come without a call. The list favours compounds with an active or inconclusive main result. The note in brackets gives the kind of curve behind each potency; many fits are weak.

By AC50 is commonly meant the concentration at which the activity in the assay is half-maximal. Consider `COc1cccc2cc(-c3nc4sc5c(c4c(=O)[nH]3)CCC(C(C)(C)C)C5)c(=O)oc12` (stereo not drawn), for which the AC50 under setting [1] is 5.62 µM [falling, partial curve].

Regarding `Cc1cc(O)cc(=O)n1Cc1ccco1`, the half-maximal activity concentration (AC50) was 0.0282 µM [rising, full curve, poor fit] under setting [1] and 0.0282 µM [rising, full curve, poor fit] under setting [2]. As for `O=C(NCc1cccc(C(F)(F)F)c1)c1cccc(S(=O)(=O)NCc2ccccc2)c1`, the AC50 under setting [2] is 35.5 µM [rising, single point]. Same read-out and setting: the same measure for `O=C(/C=C/c1ccc(F)cc1)Nc1cccc(S(=O)(=O)Nc2cccc(C(F)(F)F)c2)c1`: 1.41 µM [rising, full curve, poor fit]; for `Nc1nc(SCC(=O)Nc2ccccc2Sc2ccccc2)n[nH]1`: 12.6 µM [rising, partial curve, poor fit]. `COc1ccc(OC)c(CCNC(=O)c2nc(-c3ccc(Cl)cc3)n3c2CCCCC3)c1`: the AC50 was 12.6 µM [rising, partial curve] under setting [1] and 14.1 µM [rising, single point] under setting [2]. With `O=C(NCCC1=CCCCC1)c1ccc(F)c(S(=O)(=O)N2CCOCC2)c1`, the AC50 was 11.2 µM [rising, partial curve, poor fit] under setting [1] and 15.8 µM [rising, partial curve] under setting [2]. On to `N/C(Cc1ccc([N+](=O)[O-])cc1)=N\OC(=O)COc1ccc2ccccc2c1`, for which the AC50 is, setting by setting: under setting [1], 28.2 µM [rising, single point]; under setting [2], 35.5 µM [rising, single point]. For `CSc1nc2ccccc2n1CC(=O)Nc1ccc(C)c(C)c1`, the AC50 under setting [2] was 22.4 µM [rising, single point].

With `N#Cc1c(NC(=O)c2ccc(Cn3cc(Br)cn3)o2)sc2c1CCCCCC2`, the AC50 under setting [2] is 8.91 µM [rising, partial curve].

Take `Cc1cc(C(=O)CSc2nc(N)cc(N)n2)c(C)n1-c1cccc(F)c1`: the AC50 was 0.355 µM [rising, partial curve] under setting [1] and 14.1 µM [rising, partial curve] under setting [2].

Consider `Cc1ccc(C[n+]2cccc(-c3ccccc3)c2)c(C)c1`, for which the AC50 reads like this: under setting [1], 3.98 µM [rising, full curve]; under setting [2], 6.31 µM [rising, full curve]. As to `Fc1ccc(-c2noc(C3CCN(Cc4cccnc4)CC3)n2)cc1`, the AC50 under setting [2] was 15.8 µM [rising, partial curve]. Same read-out and setting: the same measure for `Cc1ccc(OCC(=O)Nc2ccc(N3CCN(C(=O)c4ccc(C)cc4)CC3)cc2)cc1`: 4.47 µM [falling, partial curve, poor fit]; for `Cc1ccc(C(=O)CSc2nc(C)cc(C)c2C(=O)Nc2cccc(C)c2)cc1`: 12.6 µM [rising, single point].

Consider `Cc1ccc2nc(Cl)c(/C=N/Nc3nc(C)cc(C)n3)c(=O)n2c1`, for which the AC50 was 8.91 µM [rising, partial curve, poor fit] under setting [1] and 12.6 µM [rising, partial curve] under setting [2]. Regarding `COC(=O)C1=C(C)N(C)C(=S)N(C)C1c1cccc(Br)c1` (stereo not drawn), the AC50 under setting [2] is 0.562 µM [rising, partial curve].

As for `CN(C)C=Nc1ncc2c3ccccc3n(CCN(C)C)c2c1C#N`, the AC50 under setting [2] is 35.5 µM [rising, single point]. Regarding `Cc1ccc(-c2csc(NC(=O)c3ccc(S(=O)(=O)N4CCc5ccccc54)cc3)n2)cc1`, the AC50 by setting is: under setting [1], 2 µM [rising, full curve]; under setting [2], 7.08 µM [rising, partial curve]. Consider `CCOC(=O)N1CCC(NC(=O)c2ccc3c(c2)sc2nc(-c4cccc(OC)c4)cn23)CC1`, for which the AC50 is 35.5 µM [falling, single point] under setting [1] and 3.55 µM [rising, single point] under setting [2]. `Cc1ccccc1N1CCN(C2=NC(=O)/C(=C\c3cccs3)S2)CC1`: the AC50 under setting [1] was 31.6 µM [rising, single point] and the AC50 under setting [2] is 31.6 µM [rising, single point]. Consider `CN(C)CCCNc1ncc(C(F)(F)F)cc1Cl`, for which the AC50 under setting [1] was 3.98 µM [rising, partial curve].

Turning to `CCc1ccc(C(=O)O)cc1`, the AC50 under setting [1] is 4.47 µM [rising, partial curve]. Take `CC(=O)Nc1ccc(OCC(O)Cn2c3ccccc3c3ccccc32)c(C)c1` (stereo not drawn): the AC50 under setting [2] is 22.4 µM [falling, single point]. `COc1ccc(CNc2ncncc2-c2ccc(N(C)C)cc2)c(OC)c1`: the half-maximal activity concentration (AC50) runs as follows: under setting [1], 17.8 µM [falling, partial curve]; under setting [2], 17.8 µM [falling, partial curve, poor fit]. With `NC(=O)Cn1nc(C(F)(F)F)c2c1CCCC2`, the AC50 runs as follows: under setting [1], 0.112 µM [falling, partial curve]; under setting [2], 0.355 µM [falling, full curve, poor fit]. For `Cc1nc(-c2ccc(Cl)cc2)sc1CCNC(=O)C(=O)Nc1ccc2c(c1)OCO2`, the AC50 by setting is: under setting [1], 8.91 µM [falling, partial curve]; under setting [2], 8.91 µM [falling, partial curve, poor fit]. Consider `Cc1ccc(Cl)cc1NC1=C/C(=N\S(=O)(=O)c2cccs2)c2ccccc2C1=O`, for which the AC50 reads like this: under setting [1], 35.5 µM [falling, single point]; under setting [2], 3.98 µM [falling, partial curve]. With `CCc1c(C)nc2ncnn2c1NCCc1ccc(OC)c(OC)c1`, the AC50 was 25.1 µM [rising, single point] under setting [1] and 17.8 µM [rising, partial curve] under setting [2]. For the compound `CC(C)(C)OC(=O)C(C)(C)O/N=C(\C(=O)O)c1csc(N)n1`, the AC50 under setting [1] is 0.1 µM [rising, full curve, poor fit]. With `Cc1cc(N(CCO)CCO)ccc1N=Nc1cc(F)ccc1F`, the AC50 under setting [2] is 0.00316 µM [falling, full curve, poor fit]. For the compound `O=C(CN(C1CCCCC1)S(=O)(=O)c1ccc(Cl)cc1)NCc1cccnc1`, the AC50 under setting [1] is 35.5 µM [rising, single point]. Take `O=C(Nc1nc(-c2ccccn2)cs1)C1CC1`: the AC50 under setting [2] was 14.1 µM [rising, single point].

Turning to `Clc1ccc(-c2nnc(COc3ncnc4sccc34)o2)cc1`, the concentration at half-maximal activity (AC50) under setting [1] is 0.0178 µM [falling, full curve, poor fit]. Turning to `COc1ccccc1-c1cc(C(=O)Nc2cc(C)n(Cc3ccc(Cl)cc3)n2)no1`, under setting [2], the AC50 was 35.5 µM [falling, single point]. As to `Cc1ccc(NC(=O)CN2c3cccc4cccc(c34)S2(=O)=O)cc1S(=O)(=O)N1CCOCC1`, the AC50 under setting [1] was 12.6 µM [rising, single point] and the AC50 under setting [2] is 14.1 µM [rising, partial curve]. As for `NC(=O)c1ccc[n+]([C@@H]2O[C@H](COP(=O)([O-])OP(=O)(O)OC[C@H]3O[C@@H](n4cnc5c(N)ncnc54)[C@@H](O)[C@@H]3O)[C@@H](O)[C@@H]2O)c1`, the AC50 reads like this: under setting [1], 0.00251 µM [rising, full curve, poor fit]; under setting [2], 0.126 µM [rising, partial curve]. For the compound `Cn1c(SCc2nc3ccccc3[nH]2)nnc1-c1cccs1`, the AC50 under setting [1] was 35.5 µM [rising, single point].

Take `Cc1nnc(SCC(=O)NCc2ccco2)[nH]c1=O`: under setting [2], the concentration at half-maximal activity (AC50) was 8.91 µM [rising, partial curve]. `COc1cc2c(cc1OC)-c1cc(NC3CCCCCCC3)nc(=O)n1CC2`: under setting [2], the AC50 is 10 µM [rising, partial curve]. As for `CC(=O)OC1C(N2CCCCC2)c2c(ccc(/C=C/C(=O)N3CCCCC3)c2O)OC1(C)C` (stereo not drawn), the AC50 under setting [2] was 35.5 µM [falling, partial curve, poor fit]. Take `O=C(Cc1cccs1)NCc1cn2ccccc2n1`: the AC50 under setting [1] was 22.4 µM [falling, single point]. As to `COc1cc(/C=C2/CCc3ccccc3C2=O)cc(OC)c1OC`, the AC50 under setting [2] was 11.2 µM [rising, partial curve, poor fit]. Consider `Nc1ccc(C(=O)N/N=C\c2cc(N=Nc3cccc4ccccc34)ccc2O)cc1`, for which, under setting [2], the AC50 was 17.8 µM [falling, single point]. Consider `COc1ccnc(CS(=O)c2nc3ccc(OC(F)F)cc3[nH]2)c1OC` (stereo not drawn), for which the AC50 under setting [2] was 1.26 µM [falling, partial curve, poor fit]. In the case of `Cc1ccc(S(=O)(=O)NCCC(=O)Nc2ccc(C)c(Cl)c2)cc1C`, the AC50 under setting [2] was 22.4 µM [rising, single point]. Consider `Cc1cc(C(=O)COc2ccc(C#N)cc2)c(C)n1-c1ccc2c(c1)OCO2`, for which, under setting [2], the AC50 is 3.55 µM [rising, partial curve]. Consider `COc1ccc(C(=O)Nc2cccc(C(=O)OCc3cc(=O)n4c5c(sc4n3)CCCC5)c2)cc1`, for which the AC50 under setting [2] was 11.2 µM [rising, partial curve, poor fit]. `Cc1cc(-c2nn(-c3ccccc3F)cc2CN2CCCC(CO)C2)c(C)s1` (stereo not drawn): the AC50 by setting is: under setting [1], 1.41 µM [falling, partial curve]; under setting [2], 1 µM [falling, partial curve]. Take `Cc1cc(NC(=O)CCN2C(=O)C3C4CCC(C4)C3C2=O)cc(C)c1Br` (stereo not drawn): under setting [2], the AC50 was 22.4 µM [rising, single point]. As to `COc1ccccc1-n1c(=O)n(C)c2c(C(N)=O)nc(-c3cccc(OC)c3OC)nc21`, the AC50 under setting [2] is 0.0282 µM [rising, full curve, poor fit]. Turning to `COc1ccc2nc(NC(=O)c3cccc(S(=O)(=O)N4CCOCC4)c3)sc2c1`, the AC50 under setting [2] is 10 µM [falling, partial curve, poor fit]. As to `COc1ccc2oc(/C=C/N(C)C)c(C(=O)c3ccc(Cl)cc3)c2c1`, the AC50 under setting [2] was 15.8 µM [rising, single point]. Consider `CC(NC(=O)c1ccc2c(c1)sc1nc(-c3ccc(F)cc3)cn12)C12CC3CC(CC(C3)C1)C2` (stereo not drawn), for which the AC50 under setting [2] is 0.1 µM [falling, full curve, poor fit]. On to `CC(=O)N(C)c1ccc(OCC(O)CN(Cc2ccco2)S(=O)(=O)c2ccc(C)cc2)cc1` (stereo not drawn), for which the AC50 under setting [2] was 11.2 µM [rising, partial curve].
